Results on one sequence are retold here after publication PMC6193743.

Chains of the proteins cited; added tags and fusions are not shown. Lines headed by an entry give the natural chain unless they say otherwise; changes in a name come on top.
UniProt Q9P0K8: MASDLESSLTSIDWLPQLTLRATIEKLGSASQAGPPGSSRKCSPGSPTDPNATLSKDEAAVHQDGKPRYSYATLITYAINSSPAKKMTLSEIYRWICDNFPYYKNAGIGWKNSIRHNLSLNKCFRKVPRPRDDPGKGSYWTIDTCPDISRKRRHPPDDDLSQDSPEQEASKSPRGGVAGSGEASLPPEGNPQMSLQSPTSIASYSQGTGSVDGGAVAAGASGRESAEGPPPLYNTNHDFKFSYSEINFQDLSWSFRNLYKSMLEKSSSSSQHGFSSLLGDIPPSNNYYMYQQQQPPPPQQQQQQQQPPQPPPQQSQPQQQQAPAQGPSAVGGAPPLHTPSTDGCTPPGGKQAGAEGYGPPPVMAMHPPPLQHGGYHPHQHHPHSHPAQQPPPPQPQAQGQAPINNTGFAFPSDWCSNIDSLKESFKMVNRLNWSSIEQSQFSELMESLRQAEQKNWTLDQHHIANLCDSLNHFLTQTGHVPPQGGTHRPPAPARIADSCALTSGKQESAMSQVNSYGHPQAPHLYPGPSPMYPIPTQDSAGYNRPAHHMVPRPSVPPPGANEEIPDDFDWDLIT
UniProt P62633: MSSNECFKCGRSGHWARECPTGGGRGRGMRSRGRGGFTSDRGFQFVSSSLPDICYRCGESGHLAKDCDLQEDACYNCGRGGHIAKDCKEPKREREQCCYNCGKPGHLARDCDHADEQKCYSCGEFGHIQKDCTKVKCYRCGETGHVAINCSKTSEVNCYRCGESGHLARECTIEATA

For at least one entry, the source does not settle the construct or the ends of the probe. For some assays here: Weaker means in comparison with the reference protein, sequence or condition of that experiment. For some assays here: Where cells or extracts were used, other partners may take part. For some assays here: No signal at the amounts used counts as a negative.

Series [1] has as its target Flag-FOXJ2 (Homo sapiens) (UniProt Q9P0K8). Kind of series: EMSA. Particulars: Chemiluminescent EMSA Kit (Thermo) binding buffer, room temperature, 20 min, 5% polyacrylamide gel; salt and pH not stated; protein in a lysate after overexpression; protein details: Flag; single-stranded DNA. Background: A gel shift assay detects complexes by their altered migration in electrophoresis.

Another series concerns the target HIS-CNBP (Homo sapiens) (UniProt P62633). Kind of series: EMSA. Particulars: Flag-FOXJ2 present (disrupts CNBP binding); Chemiluminescent EMSA Kit (Thermo) binding buffer, room temperature, 20 min, 5% polyacrylamide gel; salt and pH not stated; recombinant protein; protein details: His (pET-28a); single-stranded DNA.

GGGCTGGCGCGGAGGGAGGG [Biotin-G20]: the results for the binding result (in series [1]; in the series with HIS-CNBP (Homo sapiens)) were “no binding” and “binds more weakly”, respectively.
